The list shows a part of the results. The data scatter; read single values as rough.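 Tm was set to 64 °C where no melting was found, and many curves are irregular.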
Compound: CCc1cnccc1C(=O)Nc1cc2c(cc1F)NC(=O)CC2
Experiment: melting temperature shift (DMSO Tm minus MBE1-treated Tm) in cellular thermal proteome profiling; higher = less thermal stabilization by MBE1 (negative = stabilized by MBE1)
Details: A375

Sequences of proteins named here, by UniProt entry; tags and fusion partners are left off. A change or cut given only in a name is not applied to a line headed by its entry.
UniProt Q9H3L0: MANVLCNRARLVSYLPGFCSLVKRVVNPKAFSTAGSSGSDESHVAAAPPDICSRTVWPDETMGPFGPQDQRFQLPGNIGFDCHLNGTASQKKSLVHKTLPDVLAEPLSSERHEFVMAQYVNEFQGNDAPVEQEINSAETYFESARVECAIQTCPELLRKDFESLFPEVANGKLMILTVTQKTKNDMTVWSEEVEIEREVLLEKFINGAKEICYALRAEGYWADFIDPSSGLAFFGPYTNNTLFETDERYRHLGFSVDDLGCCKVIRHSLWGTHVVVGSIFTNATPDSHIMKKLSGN
UniProt Q9BYG3: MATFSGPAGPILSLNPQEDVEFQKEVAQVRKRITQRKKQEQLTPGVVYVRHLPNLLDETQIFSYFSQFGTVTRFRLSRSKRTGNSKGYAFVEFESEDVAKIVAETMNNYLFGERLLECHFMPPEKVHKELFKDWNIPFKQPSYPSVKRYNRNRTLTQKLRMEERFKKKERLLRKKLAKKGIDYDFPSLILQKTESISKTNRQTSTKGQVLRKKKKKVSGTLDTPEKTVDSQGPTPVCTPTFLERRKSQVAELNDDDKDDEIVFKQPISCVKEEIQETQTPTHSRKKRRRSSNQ
UniProt Q9H6U6: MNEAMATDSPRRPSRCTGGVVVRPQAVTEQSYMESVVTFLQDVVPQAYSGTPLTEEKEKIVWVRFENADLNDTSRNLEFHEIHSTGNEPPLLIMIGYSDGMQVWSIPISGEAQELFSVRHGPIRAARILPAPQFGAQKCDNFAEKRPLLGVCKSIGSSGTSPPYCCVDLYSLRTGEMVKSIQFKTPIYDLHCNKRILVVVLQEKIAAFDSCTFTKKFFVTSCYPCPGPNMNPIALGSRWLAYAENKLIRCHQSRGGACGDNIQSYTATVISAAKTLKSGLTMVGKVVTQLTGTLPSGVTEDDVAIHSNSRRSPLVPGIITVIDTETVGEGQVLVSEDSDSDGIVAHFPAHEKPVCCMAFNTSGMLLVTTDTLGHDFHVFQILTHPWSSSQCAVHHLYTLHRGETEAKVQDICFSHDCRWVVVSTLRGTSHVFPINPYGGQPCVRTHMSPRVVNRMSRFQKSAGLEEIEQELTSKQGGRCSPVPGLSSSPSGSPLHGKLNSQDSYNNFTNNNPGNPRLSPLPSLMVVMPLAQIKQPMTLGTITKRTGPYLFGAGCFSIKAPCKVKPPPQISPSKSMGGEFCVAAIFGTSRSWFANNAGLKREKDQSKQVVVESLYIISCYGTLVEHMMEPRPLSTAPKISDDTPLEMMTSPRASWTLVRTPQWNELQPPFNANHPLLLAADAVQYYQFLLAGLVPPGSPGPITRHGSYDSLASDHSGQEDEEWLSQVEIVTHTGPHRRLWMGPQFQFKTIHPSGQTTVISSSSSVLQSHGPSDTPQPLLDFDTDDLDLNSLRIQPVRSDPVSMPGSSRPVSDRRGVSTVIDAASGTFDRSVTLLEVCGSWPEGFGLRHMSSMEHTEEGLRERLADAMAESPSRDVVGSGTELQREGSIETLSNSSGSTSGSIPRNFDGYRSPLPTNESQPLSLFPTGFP
UniProt Q9H3Z4: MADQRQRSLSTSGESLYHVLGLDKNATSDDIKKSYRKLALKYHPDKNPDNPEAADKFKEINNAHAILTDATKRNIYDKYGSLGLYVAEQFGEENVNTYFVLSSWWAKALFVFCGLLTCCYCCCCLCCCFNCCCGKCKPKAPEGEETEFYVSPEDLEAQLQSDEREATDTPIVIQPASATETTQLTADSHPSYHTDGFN
UniProt Q9H5Z1: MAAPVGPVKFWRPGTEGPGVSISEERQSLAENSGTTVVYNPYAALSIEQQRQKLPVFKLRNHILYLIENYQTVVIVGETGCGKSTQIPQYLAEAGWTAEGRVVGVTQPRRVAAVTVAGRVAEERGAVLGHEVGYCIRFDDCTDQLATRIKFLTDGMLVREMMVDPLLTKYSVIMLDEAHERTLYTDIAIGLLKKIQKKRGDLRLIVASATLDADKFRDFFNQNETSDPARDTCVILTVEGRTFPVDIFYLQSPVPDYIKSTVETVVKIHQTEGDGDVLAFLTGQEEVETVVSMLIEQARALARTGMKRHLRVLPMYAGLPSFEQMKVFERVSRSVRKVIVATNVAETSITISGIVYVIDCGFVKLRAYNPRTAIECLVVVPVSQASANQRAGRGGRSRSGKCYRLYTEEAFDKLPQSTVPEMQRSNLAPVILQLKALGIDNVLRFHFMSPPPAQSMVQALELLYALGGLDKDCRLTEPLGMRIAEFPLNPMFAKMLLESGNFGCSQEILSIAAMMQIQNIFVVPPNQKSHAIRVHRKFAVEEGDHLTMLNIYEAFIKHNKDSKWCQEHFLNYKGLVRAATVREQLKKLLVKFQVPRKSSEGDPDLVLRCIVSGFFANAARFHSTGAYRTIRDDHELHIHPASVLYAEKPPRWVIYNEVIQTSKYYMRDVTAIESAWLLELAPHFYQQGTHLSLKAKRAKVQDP
UniProt Q9C0J8: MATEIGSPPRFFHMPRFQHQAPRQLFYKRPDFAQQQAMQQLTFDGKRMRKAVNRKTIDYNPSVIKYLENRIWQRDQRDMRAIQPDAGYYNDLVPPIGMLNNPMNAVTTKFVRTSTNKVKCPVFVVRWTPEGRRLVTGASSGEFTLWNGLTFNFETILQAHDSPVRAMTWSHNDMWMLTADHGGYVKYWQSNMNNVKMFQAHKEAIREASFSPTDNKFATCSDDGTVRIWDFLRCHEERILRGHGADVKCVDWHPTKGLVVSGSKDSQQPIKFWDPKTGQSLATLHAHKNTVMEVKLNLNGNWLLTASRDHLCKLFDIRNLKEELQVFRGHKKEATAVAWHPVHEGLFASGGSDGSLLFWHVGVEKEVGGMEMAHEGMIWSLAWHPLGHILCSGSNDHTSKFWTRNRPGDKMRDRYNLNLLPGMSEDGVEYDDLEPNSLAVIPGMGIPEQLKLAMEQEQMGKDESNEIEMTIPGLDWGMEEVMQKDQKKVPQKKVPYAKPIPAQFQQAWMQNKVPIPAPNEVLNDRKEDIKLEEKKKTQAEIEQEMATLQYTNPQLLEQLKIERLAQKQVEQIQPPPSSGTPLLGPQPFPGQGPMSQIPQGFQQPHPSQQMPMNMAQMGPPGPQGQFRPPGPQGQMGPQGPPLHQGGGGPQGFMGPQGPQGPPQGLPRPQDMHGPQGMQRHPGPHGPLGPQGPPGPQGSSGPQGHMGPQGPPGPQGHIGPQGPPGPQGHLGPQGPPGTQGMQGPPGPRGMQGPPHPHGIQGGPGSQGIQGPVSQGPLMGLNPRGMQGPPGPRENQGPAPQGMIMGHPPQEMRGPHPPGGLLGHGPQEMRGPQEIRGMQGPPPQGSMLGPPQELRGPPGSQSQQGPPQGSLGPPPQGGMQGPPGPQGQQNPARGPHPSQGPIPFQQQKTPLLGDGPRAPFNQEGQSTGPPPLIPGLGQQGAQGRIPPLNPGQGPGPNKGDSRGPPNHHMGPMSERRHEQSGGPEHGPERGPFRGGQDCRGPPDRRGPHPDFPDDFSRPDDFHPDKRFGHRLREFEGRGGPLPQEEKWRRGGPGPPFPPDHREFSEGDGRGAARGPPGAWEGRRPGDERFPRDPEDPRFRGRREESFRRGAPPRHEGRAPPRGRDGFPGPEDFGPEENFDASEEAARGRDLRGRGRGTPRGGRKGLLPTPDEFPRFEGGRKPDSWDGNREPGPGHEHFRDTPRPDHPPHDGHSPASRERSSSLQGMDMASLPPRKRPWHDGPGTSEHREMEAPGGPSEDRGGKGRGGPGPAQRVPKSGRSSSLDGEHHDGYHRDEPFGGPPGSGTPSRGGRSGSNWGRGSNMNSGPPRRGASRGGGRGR
UniProt Q9C0B7: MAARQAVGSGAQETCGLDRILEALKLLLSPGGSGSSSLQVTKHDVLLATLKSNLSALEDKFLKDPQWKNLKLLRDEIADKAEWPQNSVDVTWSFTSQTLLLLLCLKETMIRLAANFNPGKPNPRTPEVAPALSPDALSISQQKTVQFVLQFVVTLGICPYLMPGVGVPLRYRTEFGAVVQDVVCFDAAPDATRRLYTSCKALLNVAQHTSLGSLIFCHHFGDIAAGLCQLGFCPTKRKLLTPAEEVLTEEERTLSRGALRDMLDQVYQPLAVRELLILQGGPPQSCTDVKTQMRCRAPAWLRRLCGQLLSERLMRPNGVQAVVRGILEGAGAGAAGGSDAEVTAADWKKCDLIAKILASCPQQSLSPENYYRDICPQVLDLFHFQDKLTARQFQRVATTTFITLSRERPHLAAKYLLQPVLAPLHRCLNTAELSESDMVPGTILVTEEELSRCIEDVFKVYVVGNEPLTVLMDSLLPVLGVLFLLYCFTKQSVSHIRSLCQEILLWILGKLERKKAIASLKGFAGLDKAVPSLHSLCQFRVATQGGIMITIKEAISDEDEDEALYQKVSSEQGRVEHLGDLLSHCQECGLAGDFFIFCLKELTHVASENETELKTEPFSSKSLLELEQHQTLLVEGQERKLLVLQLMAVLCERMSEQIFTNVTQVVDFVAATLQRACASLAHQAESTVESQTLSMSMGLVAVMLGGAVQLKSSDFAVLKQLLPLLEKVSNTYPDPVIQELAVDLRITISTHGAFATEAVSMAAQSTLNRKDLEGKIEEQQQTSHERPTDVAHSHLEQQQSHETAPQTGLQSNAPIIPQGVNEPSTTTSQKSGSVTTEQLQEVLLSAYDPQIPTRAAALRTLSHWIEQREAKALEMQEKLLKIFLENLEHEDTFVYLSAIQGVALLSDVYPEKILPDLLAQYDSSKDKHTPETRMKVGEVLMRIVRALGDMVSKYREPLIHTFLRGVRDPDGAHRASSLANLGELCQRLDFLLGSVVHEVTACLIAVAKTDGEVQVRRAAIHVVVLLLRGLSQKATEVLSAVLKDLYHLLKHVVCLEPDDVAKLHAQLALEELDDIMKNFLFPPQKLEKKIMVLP
UniProt Q9H7B4: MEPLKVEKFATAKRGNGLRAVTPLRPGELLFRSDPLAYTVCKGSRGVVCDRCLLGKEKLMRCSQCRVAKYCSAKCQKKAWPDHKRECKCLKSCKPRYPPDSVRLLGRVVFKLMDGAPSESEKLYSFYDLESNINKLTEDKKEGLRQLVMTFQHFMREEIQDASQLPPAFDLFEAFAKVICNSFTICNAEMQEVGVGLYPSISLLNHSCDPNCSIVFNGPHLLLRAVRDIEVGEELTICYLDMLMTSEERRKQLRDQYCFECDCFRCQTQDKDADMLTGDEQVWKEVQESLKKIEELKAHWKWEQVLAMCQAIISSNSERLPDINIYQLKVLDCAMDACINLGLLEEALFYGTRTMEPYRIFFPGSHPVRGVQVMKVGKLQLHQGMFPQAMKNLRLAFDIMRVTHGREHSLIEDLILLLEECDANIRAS
UniProt Q9H8K7: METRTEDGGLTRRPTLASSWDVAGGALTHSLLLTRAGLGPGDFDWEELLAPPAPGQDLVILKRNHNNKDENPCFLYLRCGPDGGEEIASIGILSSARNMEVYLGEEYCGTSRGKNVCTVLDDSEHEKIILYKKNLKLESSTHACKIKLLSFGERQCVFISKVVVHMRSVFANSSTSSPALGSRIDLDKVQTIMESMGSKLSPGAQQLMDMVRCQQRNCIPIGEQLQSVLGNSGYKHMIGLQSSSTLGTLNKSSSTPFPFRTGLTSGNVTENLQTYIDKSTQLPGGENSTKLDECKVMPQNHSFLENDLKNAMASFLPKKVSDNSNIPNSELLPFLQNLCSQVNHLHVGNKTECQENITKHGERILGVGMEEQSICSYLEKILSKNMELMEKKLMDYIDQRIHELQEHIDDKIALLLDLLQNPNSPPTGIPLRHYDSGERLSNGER
UniProt Q9H2H8: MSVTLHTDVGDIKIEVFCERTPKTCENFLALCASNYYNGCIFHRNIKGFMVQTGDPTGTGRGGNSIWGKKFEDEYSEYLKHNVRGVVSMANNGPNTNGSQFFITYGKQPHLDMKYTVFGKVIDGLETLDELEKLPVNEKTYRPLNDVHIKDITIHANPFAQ
UniProt Q9H2U2: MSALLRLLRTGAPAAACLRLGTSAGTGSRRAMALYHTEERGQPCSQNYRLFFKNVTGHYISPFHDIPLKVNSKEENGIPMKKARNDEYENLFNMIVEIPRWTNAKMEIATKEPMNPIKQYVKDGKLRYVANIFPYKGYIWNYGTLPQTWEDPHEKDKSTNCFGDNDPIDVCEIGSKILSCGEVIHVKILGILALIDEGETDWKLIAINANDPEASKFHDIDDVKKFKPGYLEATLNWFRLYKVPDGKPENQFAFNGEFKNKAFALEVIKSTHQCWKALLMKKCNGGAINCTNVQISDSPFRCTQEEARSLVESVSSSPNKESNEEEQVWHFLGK
UniProt Q9H668: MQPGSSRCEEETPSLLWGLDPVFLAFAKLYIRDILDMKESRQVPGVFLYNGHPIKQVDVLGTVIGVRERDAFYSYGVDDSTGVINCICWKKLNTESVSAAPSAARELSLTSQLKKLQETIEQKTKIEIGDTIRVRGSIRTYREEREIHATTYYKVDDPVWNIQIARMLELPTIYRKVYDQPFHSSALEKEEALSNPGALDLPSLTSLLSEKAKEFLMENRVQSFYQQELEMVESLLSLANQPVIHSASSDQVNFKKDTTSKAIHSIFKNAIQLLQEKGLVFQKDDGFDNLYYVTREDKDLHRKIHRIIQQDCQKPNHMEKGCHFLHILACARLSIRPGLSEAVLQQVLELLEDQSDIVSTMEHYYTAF

## ZYG11B (UniProt Q9C0D3)
MBE1 concentration: 100 nM
  melting temperature shift: 0.183 °C
MBE1 concentration: 1 uM
  melting temperature shift: 0.556 °C

## RMND5A (UniProt Q9H871)
MBE1 concentration: 100 nM
  melting temperature shift: 1.01 °C
MBE1 concentration: 1 uM
  melting temperature shift: 0.434 °C

## C11ORF68 (UniProt Q9H3H3)
MBE1 concentration: 100 nM
  melting temperature shift: -0.617 °C
MBE1 concentration: 1 uM
  melting temperature shift: 0.55 °C

## COMMD5 (UniProt Q9GZQ3)
MBE1 concentration: 100 nM
  melting temperature shift: -0.436 °C
MBE1 concentration: 1 uM
  melting temperature shift: -0.443 °C

## TRIT1 (UniProt Q9H3H1)
MBE1 concentration: 100 nM
  melting temperature shift: -0.48 °C
MBE1 concentration: 1 uM
  melting temperature shift: -0.545 °C

## UniProt Q9H6A9
MBE1 concentration: 100 nM
  melting temperature shift: -0.434 °C
MBE1 concentration: 1 uM
  melting temperature shift: 0.763 °C

## UniProt Q9H3L0
MBE1 concentration: 100 nM
  melting temperature shift: 0.047 °C
MBE1 concentration: 1 uM
  melting temperature shift: -0.499 °C

## DDX31 (UniProt Q9H8H2)
MBE1 concentration: 100 nM
  melting temperature shift: -0.269 °C
MBE1 concentration: 1 uM
  melting temperature shift: -0.365 °C

## NIFK (UniProt Q9BYG3)
MBE1 concentration: 100 nM
  melting temperature shift: -0.25 °C
MBE1 concentration: 1 uM
  melting temperature shift: 0.501 °C

## MAGT1 (UniProt Q9H0U3)
MBE1 concentration: 100 nM
  melting temperature shift: -0.577 °C
MBE1 concentration: 1 uM
  melting temperature shift: 0.55 °C

## TMEM126A (UniProt Q9H061)
MBE1 concentration: 100 nM
  melting temperature shift: -0.637 °C
MBE1 concentration: 1 uM
  melting temperature shift: -1.36 °C

## TOLLIP (UniProt Q9H0E2)
MBE1 concentration: 100 nM
  melting temperature shift: -0.287 °C
MBE1 concentration: 1 uM
  melting temperature shift: 0.288 °C

## BCAS3 (UniProt Q9H6U6)
MBE1 concentration: 100 nM
  melting temperature shift: -0.428 °C
MBE1 concentration: 1 uM
  melting temperature shift: 0.00611 °C

## DSN1 (UniProt Q9H410)
MBE1 concentration: 100 nM
  melting temperature shift: -0.263 °C
MBE1 concentration: 1 uM
  melting temperature shift: 0.0188 °C

## UniProt Q9H3Z4
MBE1 concentration: 100 nM
  melting temperature shift: -0.741 °C
MBE1 concentration: 1 uM
  melting temperature shift: -2.96 °C

## UniProt Q9H5Z1
MBE1 concentration: 100 nM
  melting temperature shift: -0.936 °C
MBE1 concentration: 1 uM
  melting temperature shift: 0.442 °C

## NT5C3A (UniProt Q9H0P0)
MBE1 concentration: 100 nM
  melting temperature shift: 1.05 °C
MBE1 concentration: 1 uM
  melting temperature shift: 1.12 °C

## NOL6 (UniProt Q9H6R4)
MBE1 concentration: 100 nM
  melting temperature shift: -0.866 °C
MBE1 concentration: 1 uM
  melting temperature shift: -0.56 °C

## DOCK9 (UniProt Q9BZ29)
MBE1 concentration: 100 nM
  melting temperature shift: -1.29 °C
MBE1 concentration: 1 uM
  melting temperature shift: -0.788 °C

## PUS3 (UniProt Q9BZE2)
MBE1 concentration: 100 nM
  melting temperature shift: -0.577 °C
MBE1 concentration: 1 uM
  melting temperature shift: 0.401 °C

## METTL7A (UniProt Q9H8H3)
MBE1 concentration: 100 nM
  melting temperature shift: 0.301 °C
MBE1 concentration: 1 uM
  melting temperature shift: -1.44 °C

## WDR33 (UniProt Q9C0J8)
MBE1 concentration: 100 nM
  melting temperature shift: 0.0894 °C
MBE1 concentration: 1 uM
  melting temperature shift: -0.536 °C

## TANGO6 (UniProt Q9C0B7)
MBE1 concentration: 100 nM
  melting temperature shift: 1.04 °C
MBE1 concentration: 1 uM
  melting temperature shift: 0.403 °C

## SMYD3 (UniProt Q9H7B4)
MBE1 concentration: 100 nM
  melting temperature shift: -0.249 °C
MBE1 concentration: 1 uM
  melting temperature shift: 0.818 °C

## UniProt Q9H8K7
MBE1 concentration: 100 nM
  melting temperature shift: -0.107 °C
MBE1 concentration: 1 uM
  melting temperature shift: 0.751 °C

## NAA50 (UniProt Q9GZZ1)
MBE1 concentration: 100 nM
  melting temperature shift: -0.537 °C
MBE1 concentration: 1 uM
  melting temperature shift: -0.262 °C

## WDR12 (UniProt Q9GZL7)
MBE1 concentration: 100 nM
  melting temperature shift: -1.19 °C
MBE1 concentration: 1 uM
  melting temperature shift: 0.255 °C

## ADNP (UniProt Q9H2P0)
MBE1 concentration: 100 nM
  melting temperature shift: -0.282 °C
MBE1 concentration: 1 uM
  melting temperature shift: -0.263 °C

## PPIL3 (UniProt Q9H2H8)
MBE1 concentration: 100 nM
  melting temperature shift: -0.189 °C
MBE1 concentration: 1 uM
  melting temperature shift: -0.116 °C

## PPA2 (UniProt Q9H2U2)
MBE1 concentration: 100 nM
  melting temperature shift: -1.05 °C
MBE1 concentration: 1 uM
  melting temperature shift: 0.452 °C

## UniProt Q9H668
MBE1 concentration: 100 nM
  melting temperature shift: -0.306 °C
MBE1 concentration: 1 uM
  melting temperature shift: -0.346 °C

## ANTXR1 (UniProt Q9H6X2)
MBE1 concentration: 100 nM
  melting temperature shift: 1.82 °C
MBE1 concentration: 1 uM
  melting temperature shift: 1.28 °C

## TMEM245 (UniProt Q9H330)
MBE1 concentration: 100 nM
  melting temperature shift: 0.697 °C
MBE1 concentration: 1 uM
  melting temperature shift: 0.618 °C
